Where a chain is given by its changes, count along the chain named. Results are given in words; binding and its absence hold for the method and conditions named. Some binding calls cover weakened binding; strength is not graded here.
Key:
[1] = target: human NKp46 expressed on cells (BW NKp46 transfectants; primary activated human NK cells) (human) (UniProt O76036); experiment: staining of BW cells transfected to express NKp46
[2] = target: human NKp46 expressed on cells (BW NKp46 transfectants; primary activated human NK cells) (human) (UniProt O76036); experiment: flow cytometry on primary activated bulk human NK cells, secondary antibody detection
[3] = target: human NKp46 expressed on cells (BW NKp46 transfectants; primary activated human NK cells) (human) (UniProt O76036); experiment: flow cytometry on BW transfectants expressing NKp46
[4] = target: human NKp46 expressed on cells (BW NKp46 transfectants; primary activated human NK cells) (human) (UniProt O76036); experiment: dose response FACS staining of primary activated NK cells from two donors
[5] = target: human NKp46 expressed on cells (BW NKp46 transfectants; primary activated human NK cells) (human) (UniProt O76036); experiment: summary of the flow cytometry assays of Example 1
[6] = target: human NKp46 expressed on cells (BW NKp46 transfectants; primary activated human NK cells) (human) (UniProt O76036); experiment: flow cytometry on activated NK cells after incubation with the mAb at 4°C or 37°C, anti-mouse 647 detection
[7] = target: human NKp46 expressed on cells (BW NKp46 transfectants; primary activated human NK cells) (human) (UniProt O76036); experiment: flow cytometry on BW cells transfected with NKp46 versus parental BW cells, secondary antibody detection
[8] = target: human NKp46 (form in the assay not stated) (human) (UniProt O76036); experiment: BIAcore, mAb12 injected as analyte over NKp46
[9] = target: human NKp46 expressed on cells (BW NKp46 transfectants; primary activated human NK cells) (human) (UniProt O76036); experiment: flow cytometry dose series on primary activated NK cells of two donors (NK 1, NK 2), αm-647 detection
[10] = target: human NKp46 expressed on cells (BW NKp46 transfectants; primary activated human NK cells) (human) (UniProt O76036); experiment: flow cytometry on BW, BW NKp46 and NK Fiji cells, αm-647 detection
[11] = target: human NKp46 expressed on cells (BW NKp46 transfectants; primary activated human NK cells) (human) (UniProt O76036); experiment: flow cytometry on IL-2 activated primary human NK cells
[12] = target: human NKp46 (form in the assay not stated) (human) (UniProt O76036); experiment: BIAcore, mAb9 injected as analyte over NKp46

Sequences of proteins named here, by UniProt entry; tags and fusion partners are left off. A change or cut given only in a name is not applied to a line headed by its entry. Residues count along the entry.
UniProt O76036: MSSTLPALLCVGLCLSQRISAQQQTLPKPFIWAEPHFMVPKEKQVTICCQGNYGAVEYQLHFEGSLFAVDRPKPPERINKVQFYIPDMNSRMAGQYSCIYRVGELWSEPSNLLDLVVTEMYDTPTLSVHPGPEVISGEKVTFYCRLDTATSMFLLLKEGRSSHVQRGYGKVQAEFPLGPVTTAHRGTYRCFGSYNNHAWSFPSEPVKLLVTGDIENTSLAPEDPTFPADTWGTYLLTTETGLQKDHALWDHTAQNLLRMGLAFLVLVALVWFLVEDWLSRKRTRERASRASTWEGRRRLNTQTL
human NKp46 expressed on cells (BW NKp46 transfectants; primary activated human NK cells): residues 22-304 of O76036
human NKp46 (form in the assay not stated): residues 22-255 of O76036

Measured: binding

B1: mouse anti-NKp46 monoclonal antibody 12 (antibody, V domains shown)
VH: EVQLQQSGPELVKPGTSVKISCKTSGYTFTEYSMHWVKQSHGKSLEWFGGISPNSGGTSYNQKFKGKATLTVDKSSSTAYMELRSLTSEDSAVYYCARRDFHSSFDYWGQGTTLTVSS
VL: DIVLTQSPATLSVTPGNSVSLSCRASQSISDYLHWFQQKSHESPRLLIKYASQSISGIPSRFSGSGSGSDFTLSINSVEPEDVGVYYCQNGHSFPLTFGPGTKLELK
not listed: [12]
binds: all other assays above

B2: mouse anti-NKp46 monoclonal antibody 09 (antibody, V domains shown)
VH: B1 VH
VL: B1 VL with L4M, N17D, S18R
binds: [12]
